The list does not hold the whole screen: it gathers tests that were run many times, whatever their T/C, doses with no T/C, and many T/C values between a quarter and a half above the control. Further doses and runs are listed elsewhere. T/C is the treated group as % of the vehicle group. Schedule codes are those of the source, read here as Q, the interval in days (D) or hours (H), X, the number of doses. Some T/C values carry the count of animals alive at the toxicity check (mostly the fifth day); where none is given, no animal had died by that day. Some entries give survivors of the animals treated and no T/C: the source files T/C as zero there, which appears to mark a toxic dose or a test without result, not a measured value. Survivors were counted at the toxicity check, usually on the fifth day, unless a day is given; later deaths do not show. Some doses were run more than once; the results are listed from low to high.
Test system: MX-1 breast xenograft, nude mice, tumor weight T/C
Assay: NCI In Vivo Anticancer Drug Screen. Data for tumor model Human Mammary Carcinoma MX-1 Xenograft (intrarenal inoculation) in NU/NU Swiss (nude) mice
Conditions: T/C endpoint: mean tumor weight change, higher T/C = larger tumour; for T/C: evaluated on day 11
How it was run: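 Activity is given as a ratio, with each measurement in the compound-treated arm divided by the matching measurement in vehicle-dosed controls. Tumour size or survival serves as the measured parameter.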

[1] = dose: 600.0 mg/kg/injection, schedule: Q04DX003 (sc), vehicle: saline with Tween-80
[2] = dose: 100.0 mg/kg/injection, schedule: Q01DX010 (sc), vehicle: saline with Tween-80
[3] = dose: 300.0 mg/kg/injection, schedule: Q04DX003 (ip), vehicle: Klucel (hydroxypropylcellulose) (HPC)
[4] = dose: 600.0 mg/kg/injection, schedule: Q04DX003 (ip), vehicle: Klucel (hydroxypropylcellulose) (HPC)
[5] = dose: 200.0 mg/kg/injection, schedule: Q04DX003 (sc), vehicle: suspension in saline

SMILES: OC(C1CO1)C(O)C1CO1 (stereo not drawn)
- survivor count (dose: 1.0 mg/kg/injection, schedule: Q01DX010 (sc), vehicle: saline): 0 of 3 on day 11
- survivor count (dose: 2.0 mg/kg/injection, schedule: Q01DX010 (sc), vehicle: saline): 0 of 3 on day 11
- survivor count (dose: 4.0 mg/kg/injection, schedule: Q01DX010 (sc), vehicle: saline): 0 of 2 on day 11, 0 of 3 on day 11, 1 of 3 on day 11
- survivor count (dose: 8.0 mg/kg/injection, schedule: Q01DX010 (sc), vehicle: saline): 0 of 3 on day 11

SMILES: CC(C)CCCCCCCCCCCCC(=O)NCC(=O)NC1C(O)C(O)C(Nc2ncnc3nc[nH]c23)OC1C(O)CO (stereo not drawn)
- survivor count (dose: 2.5 mg/kg/injection, schedule: Q01DX010 (sc), vehicle: saline): 1 of 3 on day 11
- survivor count (dose: 3.2 mg/kg/injection, schedule: Q01DX010 (sc), vehicle: saline): 0 of 3 on day 11
- survivor count (dose: 25.0 mg/kg/injection, schedule: Q01DX010 (sc), vehicle: saline): 0 of 3 on day 11
- survivor count (dose: 50.0 mg/kg/injection, schedule: Q01DX010 (sc), vehicle: saline): 0 of 3 on day 11
- survivor count (dose: 100.0 mg/kg/injection, schedule: Q01DX010 (sc), vehicle: saline): 0 of 3 on day 11
- survivor count (dose: 200.0 mg/kg/injection, schedule: Q01DX010 (sc), vehicle: saline): 0 of 2 on day 11

SMILES: c1ccc([P+](c2ccccc2)(c2ccccc2)c2ccccc2)cc1
- survivor count (dose: 40.0 mg/kg/injection, schedule: Q04DX003 (sc), vehicle: saline): 0 of 6 on day 11

SMILES: Cc1c(CNc2ccc(C(=O)NC(CC(=O)O)C(=O)O)cc2)ccc2nc(N)nc(N)c12 (stereo not drawn)
- survivor count (dose: 48.0 mg/kg/injection, schedule: Q04DX003 (sc), vehicle: saline with Tween-80): 3 of 6 on day 11
- survivor count (dose: 96.0 mg/kg/injection, schedule: Q04DX003 (sc), vehicle: saline with Tween-80): 0 of 6 on day 11

SMILES: CCCCCCCCCCCCCCCCCC(=O)Nc1ccn(C2OC(CO)C(O)C2O)c(=O)n1 (stereo not drawn)
- survivor count (dose: 1200.0 mg/kg/injection, schedule: Q04DX003 (sc), vehicle: saline with Tween-80): 2 of 5 on day 11

SMILES: COc1ccc(C[C@H](N)C(=O)NC2C(CO)OC(n3cnc4c(N(C)C)ncnc43)C2O)cc1 (stereo partly drawn)
- survivor count (dose: 400.0 mg/kg/injection, schedule: Q04DX003 (sc), vehicle: saline): 1 of 6 on day 11
- survivor count (dose: 800.0 mg/kg/injection, schedule: Q04DX003 (sc), vehicle: saline): 0 of 6 on day 11

SMILES: CS(=O)(=O)OCCCCOS(C)(=O)=O
- survivor count (dose: 50.0 mg/kg/injection, schedule: Q01DX010 (sc), vehicle: saline with Tween-80): 0 of 3 on day 11

SMILES: CC1CC(C)CC(C)C(O)/C(C#N)=C/C=C/CC(C2CCCC2C(=O)O)OC(=O)CC(O)C(C)C1 (stereo not drawn)
- survivor count (dose: 24.0 mg/kg/injection, schedule: Q04DX003 (sc), vehicle: Klucel (hydroxypropylcellulose) (HPC)): 2 of 6 on day 11
- survivor count (dose: 48.0 mg/kg/injection, schedule: Q04DX003 (sc), vehicle: Klucel (hydroxypropylcellulose) (HPC)): 0 of 6 on day 11

SMILES: CC(=O)CC(C)=O.CC(=O)CC(C)=O.O=N[O-].O=N[O-].[Co]
- survivor count (dose: 300.0 mg/kg/injection, schedule: Q04DX003 (sc), vehicle: saline with Tween-80): 3 of 6 on day 11
- survivor count [1]: 0 of 6 on day 11

SMILES: CC(=O)O[C@@H]1[C@@H](O)C2=C3[C@]4(C)[C@@H]1C(C)(C)C(=O)C[C@@H]4[C@]3(O)[C@H](OC(C)=O)[C@@]1(C[C@@H]1C)C2=O
- survivor count [2]: 0 of 3 on day 11

SMILES: CCCCCNc1ncnc2c(C)[nH]nc12
- survivor count [3]: 2 of 6 on day 11
- survivor count [4]: 0 of 6 on day 11

SMILES: C=C(C)[C@H]1CN[C@H](C(=O)O)[C@H]1CC(=O)O
- survivor count (dose: 80.0 mg/kg/injection, schedule: Q04DX003 (sc), vehicle: suspension in saline): 1 of 6 on day 11
- survivor count (dose: 160.0 mg/kg/injection, schedule: Q04DX003 (sc), vehicle: suspension in saline): 0 of 6 on day 11

SMILES: C[C@@H]1C[C@@H]([C@H](O)CC2CC(=O)NC(=O)C2)C(=O)[C@@H](C)C1
- survivor count (dose: 300.0 mg/kg/injection, schedule: Q04DX003 (sc), vehicle: saline): 1 of 6 on day 11

SMILES: Cc1c2cc[n+](CCN3CCCCC3)cc2c(C)c2c1[nH]c1ccc(O)cc12
- survivor count [5]: 2 of 6 on day 11

SMILES: CCOC(=O)C(CC(C)C)NC(=O)C(N)Cc1ccc(N(CCCl)CCCl)cc1 (stereo not drawn)
- survivor count (dose: 60.0 mg/kg/injection, schedule: Q04DX003 (sc), vehicle: water): 2 of 6 on day 11
- survivor count (dose: 120.0 mg/kg/injection, schedule: Q04DX003 (sc), vehicle: water): 0 of 6 on day 11 and 1 of 6 on day 11

SMILES: NC(Cc1ccc(N(CCCl)CCCl)cc1)C(=O)O (stereo not drawn)
- survivor count (dose: 80.0 mg/kg/injection, schedule: Q04DX003 (sc), vehicle: Klucel (hydroxypropylcellulose) (HPC)): 0 of 6 on day 11

SMILES: CCC1(O)CC2CN(CCc3c([nH]c4ccccc34)C(C(=O)OC)(c3cc4c(cc3OC)N(C)C3C(O)(C(N)=O)C(O)C5(CC)C=CCN6CCC43C65)C2)C1 (stereo not drawn) (tested in a mixture with another compound)
- survivor count (dose: 6.0 mg/kg/injection, schedule: Q04DX003 (sc), vehicle: water): 2 of 6 on day 11
- survivor count (dose: 12.0 mg/kg/injection, schedule: Q04DX003 (sc), vehicle: water): 0 of 6 on day 11 and 1 of 6 on day 11
- survivor count (dose: 24.0 mg/kg/injection, schedule: Q04DX003 (sc), vehicle: water): 0 of 6 on day 11

SMILES: O=C(O)C1CC1.[Ag]
- survivor count [1]: 1 of 6 on day 11

SMILES: CO[C@@]12[C@H](COC(N)=O)C3=C(C(=O)C(C)=C(N)C3=O)N1C[C@@H]1N[C@@H]12
- survivor count (dose: 12.0 mg/kg/injection, schedule: Q04DX003 (sc), vehicle: saline): 0 of 6 on day 11, 1 of 6 on day 11, 3 of 6 on day 11
- survivor count (dose: 24.0 mg/kg/injection, schedule: Q04DX003 (sc), vehicle: saline): 0 of 6 on day 11

SMILES: CCC1CCCCN1C(=S)N/N=C(\C)c1ccccn1 (stereo not drawn)
- survivor count (dose: 150.0 mg/kg/injection, schedule: Q04DX003 (sc), vehicle: saline with Tween-80): 0 of 6 on day 11

SMILES: O=C1C(O)=C(c2ccccc2)C(=O)C(O)=C1c1ccccc1
- survivor count (dose: 600.0 mg/kg/injection, schedule: Q04DX003 (sc), vehicle: saline): 0 of 6 on day 11

SMILES: O=[N+]([O-])c1ccc([I+]c2ccccc2)cc1
- survivor count (dose: 150.0 mg/kg/injection, schedule: Q04DX003 (ip), vehicle: Klucel (hydroxypropylcellulose) (HPC)): 0 of 6 on day 11
- survivor count [3]: 0 of 6 on day 11
- survivor count [4]: 0 of 6 on day 11

SMILES: c1ccc2c(c1)nnn1c3cnccc3nc21
- survivor count [2]: 1 of 2 on day 11

SMILES: CCCCCc1cc(O)c2c(c1)OC(C)(C)[C@@H]1CCC(C)=C[C@@H]21
- T/C (dose: 600.0 mg/kg/injection, schedule: Q04DX003 (sc), vehicle: other): 132 % of control [5 of 6 alive on day 11]

SMILES: CN1c2c(nc(N)[nH]c2=O)NCC1CCNc1ccc(C(=O)NC(CCC(=O)O)C(=O)O)cc1 (stereo not drawn)
- survivor count (dose: 200.0 mg/kg/injection, schedule: Q01DX010 (sc), vehicle: suspension in saline): 1 of 3 on day 11
- survivor count (dose: 800.0 mg/kg/injection, schedule: Q01DX010 (sc), vehicle: suspension in saline): 0 of 3 on day 11

SMILES: O=Cc1ccccc1
- survivor count (dose: 1600.0 mg/kg/injection, schedule: Q04DX003 (sc), vehicle: Klucel (hydroxypropylcellulose) (HPC)): 0 of 6 on day 11

SMILES: CCOC(=O)Nc1cc2c(c(N)n1)N=C(CN(C)c1ccccc1)CN2
- survivor count (dose: 100.0 mg/kg/injection, schedule: Q01DX010 (sc), vehicle: Klucel (hydroxypropylcellulose) (HPC)): 1 of 3 on day 11

SMILES: CC(C)=CCNc1ncnc2c1ncn2C1OC(CO)C(O)C1O (stereo not drawn)
- T/C [5]: 127 % of control
- T/C (dose: 400.0 mg/kg/injection, schedule: Q04DX003 (sc), vehicle: suspension in saline): 125 % of control
- survivor count (dose: 800.0 mg/kg/injection, schedule: Q04DX003 (sc), vehicle: suspension in saline): 3 of 6 on day 11

SMILES: Cc1ccc(N)c(N)c1
- T/C (dose: 400.0 mg/kg/injection, schedule: Q04DX003 (sc), vehicle: saline with Tween-80): 130 % of control
- survivor count (dose: 1600.0 mg/kg/injection, schedule: Q04DX003 (sc), vehicle: saline with Tween-80): 0 of 6 on day 11
